PMC3950625
No constants are given. Whether binding was seen depends on the method and setting. In cells and extracts the contact can be indirect. Some results given as binding are weak or reduced against the parent protein; the word gives no strength.

Protein sequences, listed by entry. Tags and fused reporters are not part of them.
UniProt Q9NYA1: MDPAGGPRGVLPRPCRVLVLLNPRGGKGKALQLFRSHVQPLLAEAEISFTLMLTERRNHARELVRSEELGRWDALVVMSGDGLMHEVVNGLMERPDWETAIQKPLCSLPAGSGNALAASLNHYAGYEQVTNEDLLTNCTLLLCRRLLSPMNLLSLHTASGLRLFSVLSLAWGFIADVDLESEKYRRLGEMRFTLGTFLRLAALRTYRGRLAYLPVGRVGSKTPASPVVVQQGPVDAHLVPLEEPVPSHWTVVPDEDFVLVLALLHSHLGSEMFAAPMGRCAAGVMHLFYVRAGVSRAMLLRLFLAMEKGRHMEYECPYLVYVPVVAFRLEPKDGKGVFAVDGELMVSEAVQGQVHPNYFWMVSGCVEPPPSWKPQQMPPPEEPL
UniProt P16220: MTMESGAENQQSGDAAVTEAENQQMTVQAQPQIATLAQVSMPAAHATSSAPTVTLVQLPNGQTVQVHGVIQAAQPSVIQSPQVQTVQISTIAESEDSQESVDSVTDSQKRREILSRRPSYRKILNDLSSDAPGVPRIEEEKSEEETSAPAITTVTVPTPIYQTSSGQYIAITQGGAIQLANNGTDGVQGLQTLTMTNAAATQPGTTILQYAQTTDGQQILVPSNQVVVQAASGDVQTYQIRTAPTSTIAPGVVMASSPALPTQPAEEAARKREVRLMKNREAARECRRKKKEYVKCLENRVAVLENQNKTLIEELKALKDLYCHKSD

Tests used:
[1] = target: T1, sphingosine kinase 2 (human (endogenous in HUVEC)) (UniProt Q9NRA0); assay: co-IP; HUVEC lysate (500 ug total protein; 50 mM Tris-HCl, 75 mM NaCl, 75 mM KCl, 4 mM MgCl2, 1 % NP-40) incubated with 10 ug rabbit polyclonal anti-SphK-1 or anti-SphK-2 antibody and Protein A+G agarose beads; precipitates blotted for (p-)CREB, SphK-1 or SphK-2; IgG as control
T1 sequence: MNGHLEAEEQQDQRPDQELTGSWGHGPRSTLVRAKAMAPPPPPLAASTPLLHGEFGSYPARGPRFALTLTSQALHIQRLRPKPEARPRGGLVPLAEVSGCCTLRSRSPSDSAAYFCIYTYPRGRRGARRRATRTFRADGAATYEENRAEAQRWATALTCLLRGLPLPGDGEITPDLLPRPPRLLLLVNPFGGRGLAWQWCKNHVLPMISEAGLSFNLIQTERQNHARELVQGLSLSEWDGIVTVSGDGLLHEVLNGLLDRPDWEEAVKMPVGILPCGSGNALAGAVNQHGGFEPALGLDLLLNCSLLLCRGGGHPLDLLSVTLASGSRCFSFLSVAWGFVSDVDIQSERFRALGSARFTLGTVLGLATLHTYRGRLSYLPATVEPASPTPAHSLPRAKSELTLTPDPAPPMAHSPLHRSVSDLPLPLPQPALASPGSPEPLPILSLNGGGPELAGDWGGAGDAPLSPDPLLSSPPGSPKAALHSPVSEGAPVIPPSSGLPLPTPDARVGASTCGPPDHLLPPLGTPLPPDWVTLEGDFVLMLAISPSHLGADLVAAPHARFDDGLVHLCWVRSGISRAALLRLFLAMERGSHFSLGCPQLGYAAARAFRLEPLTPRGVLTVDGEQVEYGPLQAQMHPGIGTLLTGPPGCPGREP

[2] = target: sphingosine kinase 1 (human (endogenous in HUVEC)) (UniProt Q9NYA1); assay: as above

binding [1]: binds
binding [2]: no binding
Substance: cAMP response element-binding (CREB) protein (from UniProt P16220 1-327)
